Test results reported in the supplement of paper PMC8728848.
The other results are listed elsewhere or left out.

How the values were obtained:
Assay in all cases: glycan array binding signal (z-score within array); higher = stronger binding
Conditions in all cases: glycan notation: IUPAC condensed, linker removed
Glc(b1-6)Glc = molecular target: Glc(b1-6)Glc
Method in brief: (§1)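 From the Consortium for Functional Glycomics database, 3228 arrays were curated, keeping only those whose protein sequence was available. Binding is given as a within-array Z-score averaged across arrays sharing a protein sequence and across linkers. Negative Z-scores can be read as non-binding.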

GlcA(b1-3)Gal = molecular target: GlcA(b1-3)Gal
Method in brief: as §1

GlcA(b1-3)GlcNAc = molecular target: GlcA(b1-3)GlcNAc
Method in brief: as §1

GlcA(b1-6)Gal = molecular target: GlcA(b1-6)Gal
Method in brief: as §1

[1] = molecular target: GlcA3S(b1-3)Gal(b1-4)GlcNAc(b1-2)Man
Method in brief: as §1

[2] = molecular target: GlcA3S(b1-3)Gal(b1-4)GlcNAc(b1-3)Gal(b1-4)Glc
Method in brief: as §1

[3] = molecular target: GlcNAc(a1-3)Gal(b1-4)GlcNAc
Method in brief: as §1

[4] = molecular target: GlcNAc(a1-4)Gal(b1-3)GlcNAc
Method in brief: as §1

[5] = molecular target: GlcNAc(a1-4)Gal(b1-4)GalNAc
Method in brief: as §1

[6] = molecular target: GlcNAc(a1-4)Gal(b1-4)GlcNAc
Method in brief: as §1

[7] = molecular target: GlcNAc(a1-4)Gal(b1-4)GlcNAc(b1-3)Gal(b1-4)Glc
Method in brief: as §1

[8] = molecular target: GlcNAc(a1-4)Gal(b1-4)GlcNAc(b1-3)Gal(b1-4)GlcNAc
Method in brief: as §1

[9] = molecular target: GlcNAc(a1-4)Gal(b1-4)GlcNAc(b1-3)Gal(b1-4)GlcNAc(b1-3)Gal(b1-4)GlcNAc
Method in brief: as §1

[10] = molecular target: GlcNAc(a1-4)Gal(b1-4)GlcNAc(b1-3)Gal(b1-4)[Fuc(a1-3)]GlcNAc(b1-3)Gal(b1-4)[Fuc(a1-3)]GlcNAc
Method in brief: as §1

[11] = molecular target: GlcNAc(a1-6)Gal(b1-4)GlcNAc
Method in brief: as §1

[12] = molecular target: GlcNAc(b1-2)Gal(b1-3)GalNAc
Method in brief: as §1

[13] = molecular target: GlcNAc(b1-2)Man(a1-3)[GlcNAc(b1-2)Man(a1-6)]Man(b1-4)GlcNAc(b1-4)GlcNAc
Method in brief: as §1

[14] = molecular target: GlcNAc(b1-2)Man(a1-3)[GlcNAc(b1-2)Man(a1-6)]Man(b1-4)GlcNAc(b1-4)[Fuc(a1-6)]GlcNAc
Method in brief: as §1

[15] = molecular target: GlcNAc(b1-2)Man(a1-3)[GlcNAc(b1-4)][GlcNAc(b1-2)Man(a1-6)]Man(b1-4)GlcNAc(b1-4)GlcNAc
Method in brief: as §1

[16] = molecular target: GlcNAc(b1-2)Man(a1-3)[GlcNAc(b1-4)][GlcNAc(b1-2)Man(a1-6)]Man(b1-4)GlcNAc(b1-4)[Fuc(a1-6)]GlcNAc
Method in brief: as §1

[17] = molecular target: GlcNAc(b1-2)[GlcNAc(b1-4)]Man(a1-3)[GlcNAc(b1-2)Man(a1-6)]Man(b1-4)GlcNAc(b1-4)GlcNAc
Method in brief: as §1

[18] = molecular target: GlcNAc(b1-2)[GlcNAc(b1-4)]Man(a1-3)[GlcNAc(b1-4)][GlcNAc(b1-2)Man(a1-6)]Man(b1-4)GlcNAc(b1-4)GlcNAc
Method in brief: as §1

[19] = molecular target: GlcNAc(b1-2)[GlcNAc(b1-4)]Man(a1-3)[GlcNAc(b1-4)][GlcNAc(b1-2)[GlcNAc(b1-6)]Man(a1-6)]Man(b1-4)GlcNAc(b1-4)GlcNAc
Method in brief: as §1

[20] = molecular target: GlcNAc(b1-2)[GlcNAc(b1-4)]Man(a1-3)[GlcNAc(b1-4)][GlcNAc(b1-2)[GlcNAc(b1-6)]Man(a1-6)]Man(b1-4)GlcNAc(b1-4)[Fuc(a1-6)]GlcNAc
Method in brief: as §1

[21] = molecular target: GlcNAc(b1-2)[GlcNAc(b1-6)]Man(a1-6)[GlcNAc(b1-2)Man(a1-3)]Man(b1-4)GlcNAc(b1-4)GlcNAc
Method in brief: as §1

[22] = molecular target: GlcNAc(b1-2)[GlcNAc(b1-6)]Man(a1-6)[GlcNAc(b1-2)Man(a1-3)]Man(b1-4)GlcNAc(b1-4)[Fuc(a1-6)]GlcNAc
Method in brief: as §1

[23] = molecular target: GlcNAc(b1-2)[GlcNAc(b1-6)]Man(a1-6)[GlcNAc(b1-4)][GlcNAc(b1-2)Man(a1-3)]Man(b1-4)GlcNAc(b1-4)GlcNAc
Method in brief: as §1

GlcNAc(b1-3)Fuc = molecular target: GlcNAc(b1-3)Fuc
Method in brief: as §1

GlcNAc(b1-3)Gal = molecular target: GlcNAc(b1-3)Gal
Method in brief: as §1

[24] = molecular target: GlcNAc(b1-3)Gal(b1-3)GalNAc
Method in brief: as §1

GlcNAc(b1-3)Gal(b1-4)Glc = molecular target: GlcNAc(b1-3)Gal(b1-4)Glc
Method in brief: as §1

[25] = molecular target: GlcNAc(b1-3)Gal(b1-4)GlcNAc
Method in brief: as §1

[26] = molecular target: GlcNAc(b1-3)Gal(b1-4)GlcNAc(b1-2)Man(a1-3)[GlcNAc(b1-3)Gal(b1-4)GlcNAc(b1-2)Man(a1-6)]Man(b1-4)GlcNAc(b1-4)GlcNAc
Method in brief: as §1

[27] = molecular target: GlcNAc(b1-3)Gal(b1-4)GlcNAc(b1-2)Man(a1-3)[GlcNAc(b1-3)Gal(b1-4)GlcNAc(b1-2)Man(a1-6)]Man(b1-4)GlcNAc(b1-4)[Fuc(a1-6)]GlcNAc
Method in brief: as §1

[28] = molecular target: GlcNAc(b1-3)Gal(b1-4)GlcNAc(b1-2)[GlcNAc(b1-3)Gal(b1-4)GlcNAc(b1-6)]Man(a1-6)[GlcNAc(b1-3)Gal(b1-4)GlcNAc(b1-2)Man(a1-3)]Man(b1-4)GlcNAc(b1-4)GlcNAc
Method in brief: as §1

[29] = molecular target: GlcNAc(b1-3)Gal(b1-4)GlcNAc(b1-3)Gal(b1-4)GlcNAc
Method in brief: as §1

[30] = molecular target: GlcNAc(b1-3)Gal(b1-4)GlcNAc(b1-3)Gal(b1-4)GlcNAc(b1-2)Man(a1-3)[GlcNAc(b1-3)Gal(b1-4)GlcNAc(b1-3)Gal(b1-4)GlcNAc(b1-2)Man(a1-6)]Man(b1-4)GlcNAc(b1-4)GlcNAc
Method in brief: as §1

[31] = molecular target: GlcNAc(b1-3)Gal(b1-4)GlcNAc(b1-3)Gal(b1-4)GlcNAc(b1-2)Man(a1-3)[GlcNAc(b1-3)Gal(b1-4)GlcNAc(b1-3)Gal(b1-4)GlcNAc(b1-2)Man(a1-6)]Man(b1-4)GlcNAc(b1-4)[Fuc(a1-6)]GlcNAc
Method in brief: as §1

[32] = molecular target: GlcNAc(b1-3)Gal(b1-4)GlcNAc(b1-3)Gal(b1-4)GlcNAc(b1-2)[GlcNAc(b1-3)Gal(b1-4)GlcNAc(b1-3)Gal(b1-4)GlcNAc(b1-6)]Man(a1-6)[GlcNAc(b1-3)Gal(b1-4)GlcNAc(b1-3)Gal(b1-4)GlcNAc(b1-2)Man(a1-3)]Man(b1-4)GlcNAc(b1-4)[Fuc(a1-6)]GlcNAc
Method in brief: as §1

[33] = molecular target: GlcNAc(b1-3)Gal(b1-4)GlcNAc(b1-3)Gal(b1-4)GlcNAc(b1-3)Gal(b1-4)GlcNAc(b1-2)Man(a1-3)[GlcNAc(b1-3)Gal(b1-4)GlcNAc(b1-3)Gal(b1-4)GlcNAc(b1-3)Gal(b1-4)GlcNAc(b1-2)Man(a1-6)]Man(b1-4)GlcNAc(b1-4)GlcNAc
Method in brief: as §1

[34] = molecular target: GlcNAc(b1-3)Gal(b1-4)GlcNAc(b1-3)Gal(b1-4)GlcNAc(b1-3)Gal(b1-4)GlcNAc(b1-2)Man(a1-3)[GlcNAc(b1-3)Gal(b1-4)GlcNAc(b1-3)Gal(b1-4)GlcNAc(b1-3)Gal(b1-4)GlcNAc(b1-2)Man(a1-6)]Man(b1-4)GlcNAc(b1-4)[Fuc(a1-6)]GlcNAc
Method in brief: as §1

[35] = molecular target: GlcNAc(b1-3)Gal(b1-4)GlcNAc(b1-3)Gal(b1-4)GlcNAc(b1-3)Gal(b1-4)GlcNAc(b1-2)[GlcNAc(b1-3)Gal(b1-4)GlcNAc(b1-3)Gal(b1-4)GlcNAc(b1-3)Gal(b1-4)GlcNAc(b1-6)]Man(a1-6)[GlcNAc(b1-3)Gal(b1-4)GlcNAc(b1-3)Gal(b1-4)GlcNAc(b1-3)Gal(b1-4)GlcNAc(b1-2)Man(a1-3)]Man(b1-4)GlcNAc(b1-4)[Fuc(a1-6)]GlcNAc
Method in brief: as §1

[36] = molecular target: GlcNAc(b1-3)Gal(b1-4)GlcNAc(b1-3)Gal(b1-4)GlcNAc(b1-3)Gal(b1-4)GlcNAc(b1-3)Gal(b1-4)GlcNAc(b1-2)Man(a1-3)[GlcNAc(b1-3)Gal(b1-4)GlcNAc(b1-3)Gal(b1-4)GlcNAc(b1-3)Gal(b1-4)GlcNAc(b1-3)Gal(b1-4)GlcNAc(b1-2)Man(a1-6)]Man(b1-4)GlcNAc(b1-4)GlcNAc
Method in brief: as §1

[37] = molecular target: GlcNAc(b1-3)Gal(b1-4)GlcNAc(b1-3)Gal(b1-4)GlcNAc(b1-3)Gal(b1-4)GlcNAc(b1-3)Gal(b1-4)GlcNAc(b1-2)Man(a1-3)[GlcNAc(b1-3)Gal(b1-4)GlcNAc(b1-3)Gal(b1-4)GlcNAc(b1-3)Gal(b1-4)GlcNAc(b1-3)Gal(b1-4)GlcNAc(b1-2)Man(a1-6)]Man(b1-4)GlcNAc(b1-4)[Fuc(a1-6)]GlcNAc
Method in brief: as §1

[38] = molecular target: GlcNAc(b1-3)Gal(b1-4)GlcNAc(b1-3)Gal(b1-4)GlcNAc(b1-3)Gal(b1-4)GlcNAc(b1-3)Gal(b1-4)GlcNAc(b1-2)[GlcNAc(b1-3)Gal(b1-4)GlcNAc(b1-3)Gal(b1-4)GlcNAc(b1-3)Gal(b1-4)GlcNAc(b1-3)Gal(b1-4)GlcNAc(b1-6)]Man(a1-6)[GlcNAc(b1-3)Gal(b1-4)GlcNAc(b1-3)Gal(b1-4)GlcNAc(b1-3)Gal(b1-4)GlcNAc(b1-3)Gal(b1-4)GlcNAc(b1-2)Man(a1-3)]Man(b1-4)GlcNAc(b1-4)[Fuc(a1-6)]GlcNAc
Method in brief: as §1

B1: Clec18A (Homo sapiens) (protein)
chain: PFHTCDLRIDGDCFMVSSEADTYYRARMKCQRKGGVLAQIKRQKVQDILAFYLGRLETTNEVIDSDFETRNFWIGLTYKTAKDSFRWATGEHQAFTSFAFGQPDNHGFGNCVELQASAAFNWNDQRCKTRNRYICQ
B1 was tested, and the “glycan array binding signal (z-score)” value (Glc(b1-6)Glc) was -0.715, the “glycan array binding signal (z-score)” value (GlcA(b1-3)Gal) was -0.897 and the “glycan array binding signal (z-score)” value (GlcA(b1-3)GlcNAc) was -0.548. The “glycan array binding signal (z-score)” value (GlcA(b1-6)Gal) was 8.1, the “glycan array binding signal (z-score)” value [1] was -0.619 and the “glycan array binding signal (z-score)” value [2] was 0.435. The “glycan array binding signal (z-score)” value [3] was -0.82, the “glycan array binding signal (z-score)” value [4] was -0.342 and the “glycan array binding signal (z-score)” value [5] was 1.05. For the same binder, the “glycan array binding signal (z-score)” value [6] was -0.677, the “glycan array binding signal (z-score)” value [7] was -0.68 and the “glycan array binding signal (z-score)” value [8] was -0.784. The “glycan array binding signal (z-score)” value [9] was -0.889, the “glycan array binding signal (z-score)” value [10] was -0.419 and the “glycan array binding signal (z-score)” value [11] was 0.11. The “glycan array binding signal (z-score)” value [12] was -0.775, the “glycan array binding signal (z-score)” value [13] was -0.838 and the “glycan array binding signal (z-score)” value [14] was -0.289. The “glycan array binding signal (z-score)” value [15] was -0.723, the “glycan array binding signal (z-score)” value [16] was -0.53 and the “glycan array binding signal (z-score)” value [17] was -0.935. The “glycan array binding signal (z-score)” value [18] was -0.86, the “glycan array binding signal (z-score)” value [19] was -0.674 and the “glycan array binding signal (z-score)” value [20] was -0.555. The “glycan array binding signal (z-score)” value [21] was -0.742, the “glycan array binding signal (z-score)” value [22] was -0.696 and the “glycan array binding signal (z-score)” value [23] was -0.878. The “glycan array binding signal (z-score)” value (GlcNAc(b1-3)Fuc) was -0.649, the “glycan array binding signal (z-score)” value (GlcNAc(b1-3)Gal) was -0.57 and the “glycan array binding signal (z-score)” value [24] was -0.027. For the same binder, the “glycan array binding signal (z-score)” value (GlcNAc(b1-3)Gal(b1-4)Glc) was -0.739, the “glycan array binding signal (z-score)” value [25] was -0.66 and the “glycan array binding signal (z-score)” value [26] was -0.164. The “glycan array binding signal (z-score)” value [27] was -0.647, the “glycan array binding signal (z-score)” value [28] was 0.215 and the “glycan array binding signal (z-score)” value [29] was -0.41. The “glycan array binding signal (z-score)” value [30] was -0.619, the “glycan array binding signal (z-score)” value [31] was -0.763 and the “glycan array binding signal (z-score)” value [32] was -0.256. The “glycan array binding signal (z-score)” value [33] was 0.049, the “glycan array binding signal (z-score)” value [34] was -0.672 and the “glycan array binding signal (z-score)” value [35] was -0.614. The “glycan array binding signal (z-score)” value [36] was 1.14, the “glycan array binding signal (z-score)” value [37] was -0.406 and the “glycan array binding signal (z-score)” value [38] was -0.085.
